We go through one molecule from patent US20140045756A1.

Results are given in words; binding and its absence hold for the method and conditions named. Binding seen in cells or lysates may run through a third protein. Some results given as binding are weak or reduced against the parent protein; the word gives no strength.

The target in test [1] is T1, TNFR1, endogenous, in lysates of human chondrocytes (human), P19438.
T1 chain: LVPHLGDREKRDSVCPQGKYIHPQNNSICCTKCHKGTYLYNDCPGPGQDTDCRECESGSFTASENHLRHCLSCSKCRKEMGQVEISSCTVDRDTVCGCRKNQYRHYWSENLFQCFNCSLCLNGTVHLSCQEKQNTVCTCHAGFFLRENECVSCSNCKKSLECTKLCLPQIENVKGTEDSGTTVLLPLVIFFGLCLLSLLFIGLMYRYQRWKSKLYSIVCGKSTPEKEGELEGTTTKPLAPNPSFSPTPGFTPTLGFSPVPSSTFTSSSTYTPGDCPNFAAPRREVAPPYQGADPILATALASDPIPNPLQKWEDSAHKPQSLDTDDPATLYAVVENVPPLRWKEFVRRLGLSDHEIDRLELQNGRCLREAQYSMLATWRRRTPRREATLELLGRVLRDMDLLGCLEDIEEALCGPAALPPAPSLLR
The test is described as follows: co-immunoprecipitation from human chondrocyte lysates, Western blot. To be noted: remark: other sources report otherwise.

Test [2] concerns the target T2, TNFR2, endogenous, in lysates of human chondrocytes (human), P20333.
T2 chain: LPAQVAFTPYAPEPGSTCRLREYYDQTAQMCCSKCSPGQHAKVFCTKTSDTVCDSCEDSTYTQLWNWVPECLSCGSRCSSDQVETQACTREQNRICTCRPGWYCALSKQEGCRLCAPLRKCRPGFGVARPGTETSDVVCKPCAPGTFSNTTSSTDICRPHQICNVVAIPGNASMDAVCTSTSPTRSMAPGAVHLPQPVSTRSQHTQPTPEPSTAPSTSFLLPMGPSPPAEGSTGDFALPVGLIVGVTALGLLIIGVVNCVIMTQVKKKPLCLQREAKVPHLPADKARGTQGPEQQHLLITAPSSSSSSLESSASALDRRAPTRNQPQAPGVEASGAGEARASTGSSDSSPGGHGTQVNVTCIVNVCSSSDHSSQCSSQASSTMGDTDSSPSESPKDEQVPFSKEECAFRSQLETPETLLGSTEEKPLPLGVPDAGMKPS
Described as above. Conditions: remark: other sources report otherwise.

B1: PGRN, endogenous, in lysates of human chondrocytes, P28799 18-593 (ligand)
chain: TRCPDGQFCPVACCLDPGGASYSCCRPLLDKWPTTLSRHLGGPCQVDAHCSAGHSCIFTVSGTSSCCPFPEAVACGDGHHCCPRGFHCSADGRSCFQRSGNNSVGAIQCPDSQFECPDFSTCCVMVDGSWGCCPMPQASCCEDRVHCCPHGAFCDLVHTRCITPTGTHPLAKKLPAQRTNRAVALSSSVMCPDARSRCPDGSTCCELPSGKYGCCPMPNATCCSDHLHCCPQDTVCDLIQSKCLSKENATTDLLTKLPAHTVGDVKCDMEVSCPDGYTCCRLQSGAWGCCPFTQAVCCEDHIHCCPAGFTCDTQKGTCEQGPHQVPWMEKAPAHLSLPDPQALKRDVPCDNVSSCPSSDTCCQLTSGEWGCCPIPEAVCCSDHQHCCPQGYTCVAEGQCQRGSEIVAGLEKMPARRASLSHPRDIGCDQHTSCPVGQTCCPSLGGSWACCQLPHAVCCEDRQHCCPAGYTCNVKARSCEKEVVSAQPATFLARSPHVGVKDVECGEGHFCHDNQTCCRDNRQGWACCPYRQGVCCADRRHCCPAGFRCAARGTKCLRREAPRWDAPLRDPALRQLL
Regarding B1, the binding result in test [1] and in test [2] was “binds” throughout.
